Source: publication PMC12155470, “Novel Tetraene Macrodiolides Are Effective Inducers of Mitochondrial Apoptosis in Jurkat Cells” (International Journal of Molecular Sciences, 2025)

Experiments:
[1] = system: Jurkat; assay: In vitro cytotoxic activity, 7-AAD flow cytometry, Jurkat; assay type: cell-based, Human; conditions: CC50 fibroblasts / CC50 Jurkat
Description: (§1) The investigation focused on the assessment of the synthesized compounds’ toxicities, utilizing a panel of six diverse cell lines. The selection of cells was based on the specific features of their metabolism, namely, Jurkat, K562, U937, and HL60 cells are suspension cultures of oncohematologic origin, and HEK293 is a conditionally normal line transformed by adenovirus and often used as control cells along with fibroblasts. The normal fibroblast line (Wi-38) utilized in the experiment was diploid and was obtained from the lung tissue of an aborted fetus. The total cytotoxic activity of 16 compounds was studied using flow cytometry.
(§2) Human cancer cell lines, including Jurkat, K562, U937, HL60, and fibroblasts (Wi-38), were obtained from the European Authentic Cell Culture Collection and further cultured according to established standard protocols using sterile methods. The cells were cultivated in RPMI 1640 (for Jurkat and K562) and DMEM (for Wi-38 and HEK293) media (Gibco, Billings, MT, USA), with the addition of […] glutamine, 10% FBS (Sigma, Kanagawa, Japan), and 100 U/mL penicillin–streptomycin (Sigma). All cell types were cultivated in a humidified atmosphere containing 5% CO₂ at a temperature of 37 °C. Subculturing was performed at two- to three-day intervals. The cells were subsequently seeded into 24-well plates at a density of 5 × 10^4 cells per well and incubated overnight. Subsequent subculturing was then performed at two-day intervals, with a seeding density of 1 × 10^5 cells per 24-well plate, using RPMI medium with 10% FBS [49].
(§3) The dissolution of the compounds tested was initially performed in dimethyl sulfoxide (DMSO) with an initial solution of 100 mM in 10% DMSO. Subsequently, the solution was diluted in a complete culture medium, namely, Dulbecco’s medium, modified Eagle’s medium (DMEM), or Roswell Park Memorial Institute medium (RPMI). Substances were added at concentrations of 10, 1, 100, 10, 1, and 0.1 μM on the day after seeding and incubated for 24 h. Following this, the cells were washed with a phosphate-buffered saline (PBS) solution and stained with 7AAD dye, as per the manufacturer’s protocol for flow cytometry. The CC50 value, which characterizes the parameters of toxicity (i.e., the concentration of the compound required for 50% inhibition of cell viability in vitro), was calculated. logC versus % inhibition was plotted, and statistical data processing was performed using Excel and GraphPad Prism v.8.0.2 (San Diego, CA, USA, 2019). The data obtained from three independent experiments were expressed as the mean of three measurements for each concentration, with the standard deviation indicated as well. These values were then relative to the control values (0.1% DMSO), which were taken as 100%.
(§4) 7-AAD (7-aminoactinomycin D) dye (eBioscience™, San Diego, CA, USA) was used to assess cell viability. Following incubation with the test compounds, the cells were harvested, washed with a phosphate–salt buffer (PBS), and subjected to centrifugation at 400× g for five minutes. The cell sediment was resuspended in 200 μL of staining buffer for flow cytometry (PBS without calcium and magnesium, 2.5% FBS) and stained with a 1 mM 7-AAD dye solution for 15 min in the dark at room temperature. Subsequently, all samples, including experimental and control groups, were analyzed using a BD FACSAria™ III Cell Sorter flow cytometer (Milpitas, CA, USA).

[2] = system: U937; assay: In vitro cytotoxic activity, 7-AAD flow cytometry, U937; assay type: cell-based, Human; conditions: CC50 fibroblasts / CC50 U937
Description: as §1, §2, §3, §4

[3] = system: Hek293; assay: In vitro cytotoxic activity, 7-AAD flow cytometry, Hek293; assay type: cell-based; conditions: CC50 fibroblasts / CC50 Hek293
Description: as §1, §2, §3, §4

[4] = system: HL60; assay: In vitro cytotoxic activity, 7-AAD flow cytometry, HL60; assay type: cell-based, Human; conditions: CC50 fibroblasts / CC50 HL60
Description: as §1, §2, §3, §4

[5] = system: K562; assay: In vitro cytotoxic activity, 7-AAD flow cytometry, K562; assay type: cell-based, Human; conditions: CC50 fibroblasts / CC50 K562
Description: as §1, §2, §3, §4

Compound	SI (Jurkat) [1]	SI (U937) [2]	SI (Hek293) [3]	SI (HL60) [4]	SI (K562) [5]
O=C1CCCC/C=C\CC/C=C\CCCCC(=O)OCCCCC/C=C\CC/C=C\CCCCCO1 [Compound 8c]	3.6	4.1	1.3	4.4	3.8
O=C1CC/C=C\CC/C=C\CCC(=O)OCCCCC/C=C\CC/C=C\CCCCCO1 [Compound 8a]	3.4	3.6	1.3	3.9	3.8
O=C1CCCC/C=C\CC/C=C\CCCCC(=O)OCCCC/C=C\CC/C=C\CCCCO1 [Compound 7c]	3.2	3.4	1.2	3.8	3.5
O=C1CCCCC/C=C\CC/C=C\CCCCCC(=O)OCCCC/C=C\CC/C=C\CCCCO1 [Compound 7d]	3.3	3.9	1.2	4.1	3.5
O=C1CCC/C=C\CC/C=C\CCCC(=O)OCCCCC/C=C\CC/C=C\CCCCCO1 [Compound 8b]	3.2	3.7	1.3	3.5	3.5
O=C1CCC/C=C\CC/C=C\CCCC(=O)OCCCC/C=C\CC/C=C\CCCCO1 [Compound 7b]	3.0	3.5	1.1	3.4	3.4
O=C1CCCC/C=C\CC/C=C\CCCCC(=O)OCCCCCC/C=C\CC/C=C\CCCCCCO1 [Compound 9c]	3.4	4.5	1.2	4.6	4.0
O=C1CC/C=C\CC/C=C\CCC(=O)OCCC/C=C\CC/C=C\CCCO1 [Compound 6a]	2.6	3.3	1.4	3.8	3.0
O=C1CCCCC/C=C\CC/C=C\CCCCCC(=O)OCCC/C=C\CC/C=C\CCCO1 [Compound 6d]	3.2	3.9	1.3	3.7	3.5
O=C1CCC/C=C\CC/C=C\CCCC(=O)OCCCCCC/C=C\CC/C=C\CCCCCCO1 [Compound 9b]	3.3	3.9	1.1	3.9	3.5
O=C1CCC/C=C\CC/C=C\CCCC(=O)OCCC/C=C\CC/C=C\CCCO1 [Compound 6b]	2.9	2.7	1.3	3.0	2.8
O=C1CCCCC/C=C\CC/C=C\CCCCCC(=O)OCCCCCC/C=C\CC/C=C\CCCCCCO1 [Compound 9d]	5.3	5.2	1.5	4.7	5.8
O=C1CCCCC/C=C\CC/C=C\CCCCCC(=O)OCCCCC/C=C\CC/C=C\CCCCCO1 [Compound 8d]	3.9	5.2	1.2	5.7	4.1
O=C1CCCC/C=C\CC/C=C\CCCCC(=O)OCCC/C=C\CC/C=C\CCCO1 [Compound 6c]	2.6	3.0	1.3	2.9	2.9
O=C1CC/C=C\CC/C=C\CCC(=O)OCCCCCC/C=C\CC/C=C\CCCCCCO1 [Compound 9a]	3.3	4.0	1.4	3.9	3.9
O=C1CC/C=C\CC/C=C\CCC(=O)OCCCC/C=C\CC/C=C\CCCCO1 [Compound 7a]	2.5	3.0	1.3	3.2	2.8
